We go through one molecule from the supplement of paper PMC12067093, “Discovery and optimisation of a covalent ligand for TRIM25 and its application to targeted protein ubiquitination” (Chemical Science, 2025).

The target in this experiment is T1, PPIL2_Q13356_103_YHCPVLFTVFTNNTHIVAVR (UniProt Q13356).
T1 sequence (whole entry): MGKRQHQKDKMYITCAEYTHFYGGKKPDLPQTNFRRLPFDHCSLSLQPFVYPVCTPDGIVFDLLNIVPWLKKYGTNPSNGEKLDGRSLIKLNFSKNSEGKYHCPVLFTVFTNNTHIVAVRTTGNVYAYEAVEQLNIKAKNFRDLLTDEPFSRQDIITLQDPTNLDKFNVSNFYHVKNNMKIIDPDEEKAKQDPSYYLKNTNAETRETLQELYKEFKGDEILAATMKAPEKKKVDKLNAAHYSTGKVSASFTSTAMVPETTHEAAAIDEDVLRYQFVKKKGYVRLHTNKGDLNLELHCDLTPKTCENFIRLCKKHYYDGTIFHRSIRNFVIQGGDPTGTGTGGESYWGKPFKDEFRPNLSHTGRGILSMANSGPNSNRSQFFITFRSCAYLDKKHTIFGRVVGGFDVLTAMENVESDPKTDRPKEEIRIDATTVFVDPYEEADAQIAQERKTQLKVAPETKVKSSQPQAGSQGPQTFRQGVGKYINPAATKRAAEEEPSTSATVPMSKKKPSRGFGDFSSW
Put plainly: probe-labelled cysteine peptide fold change vs DMSO (competition) (log2 fold change); higher = less target engagement (more negative = stronger competition). Conditions: THP-1, incubation time: 4 h.

Structures are written as SMILES. The list shows a part of the results.
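Note: competitive chemoproteomic profiling in live THP-1 cells with an iodoacetamide desthiobiotin (IA-DTB) probe, comparing probe-labelled peptide intensities in compound-treated cells against DMSO-treated controls.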

On to `CC1Cc2ccccc2N1C(=O)C1CCCN(C(=O)CCl)C1` (mixture of isomers) [TRIM25 ligand 11 (diastereomer mixture)], for which the “probe-labelled cysteine peptide fold change” value runs as follows: (10 µM) -0.115; (50 µM) -0.134.
